Assay results reported in the supplement of paper PMC10849652.
This is one part of the list.

The chains behind the UniProt entries cited, without tags or fusion partners. Where a name states a change or a piece, a line headed by the entry shows the natural chain unless it says otherwise.
UniProt A5D8V6: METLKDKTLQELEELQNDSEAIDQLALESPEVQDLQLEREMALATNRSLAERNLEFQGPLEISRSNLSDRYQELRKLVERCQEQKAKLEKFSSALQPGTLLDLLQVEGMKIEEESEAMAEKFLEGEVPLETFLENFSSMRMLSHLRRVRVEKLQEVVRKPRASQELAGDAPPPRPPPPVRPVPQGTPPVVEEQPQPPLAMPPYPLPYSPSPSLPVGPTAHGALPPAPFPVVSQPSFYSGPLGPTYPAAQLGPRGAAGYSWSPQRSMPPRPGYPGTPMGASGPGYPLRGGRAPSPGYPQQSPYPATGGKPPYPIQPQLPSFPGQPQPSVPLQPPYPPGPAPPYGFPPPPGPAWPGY
UniProt Q9H270: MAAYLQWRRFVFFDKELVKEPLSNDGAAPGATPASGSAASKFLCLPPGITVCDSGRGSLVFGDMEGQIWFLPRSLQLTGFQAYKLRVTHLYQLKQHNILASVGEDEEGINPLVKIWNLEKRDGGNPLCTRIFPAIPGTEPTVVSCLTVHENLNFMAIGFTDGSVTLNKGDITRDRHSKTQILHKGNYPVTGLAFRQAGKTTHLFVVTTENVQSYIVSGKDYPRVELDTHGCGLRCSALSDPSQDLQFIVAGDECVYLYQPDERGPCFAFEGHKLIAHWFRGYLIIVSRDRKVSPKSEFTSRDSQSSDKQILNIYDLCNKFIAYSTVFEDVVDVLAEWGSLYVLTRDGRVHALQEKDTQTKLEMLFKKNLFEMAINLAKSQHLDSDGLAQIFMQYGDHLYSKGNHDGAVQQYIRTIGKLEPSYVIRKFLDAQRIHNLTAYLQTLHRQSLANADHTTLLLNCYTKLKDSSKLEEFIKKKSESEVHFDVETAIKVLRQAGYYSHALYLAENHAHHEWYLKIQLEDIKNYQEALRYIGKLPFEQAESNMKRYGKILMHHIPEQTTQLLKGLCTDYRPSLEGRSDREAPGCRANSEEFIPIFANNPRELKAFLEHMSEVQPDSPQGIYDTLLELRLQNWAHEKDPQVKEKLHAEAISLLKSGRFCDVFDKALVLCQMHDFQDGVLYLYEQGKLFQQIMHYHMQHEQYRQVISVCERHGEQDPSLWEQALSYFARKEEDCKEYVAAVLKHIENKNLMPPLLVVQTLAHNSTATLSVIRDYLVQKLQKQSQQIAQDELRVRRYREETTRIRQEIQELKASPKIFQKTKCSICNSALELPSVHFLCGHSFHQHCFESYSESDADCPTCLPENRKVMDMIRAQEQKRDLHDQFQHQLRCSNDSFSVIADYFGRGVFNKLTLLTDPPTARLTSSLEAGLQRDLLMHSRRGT
UniProt Q6VEQ5: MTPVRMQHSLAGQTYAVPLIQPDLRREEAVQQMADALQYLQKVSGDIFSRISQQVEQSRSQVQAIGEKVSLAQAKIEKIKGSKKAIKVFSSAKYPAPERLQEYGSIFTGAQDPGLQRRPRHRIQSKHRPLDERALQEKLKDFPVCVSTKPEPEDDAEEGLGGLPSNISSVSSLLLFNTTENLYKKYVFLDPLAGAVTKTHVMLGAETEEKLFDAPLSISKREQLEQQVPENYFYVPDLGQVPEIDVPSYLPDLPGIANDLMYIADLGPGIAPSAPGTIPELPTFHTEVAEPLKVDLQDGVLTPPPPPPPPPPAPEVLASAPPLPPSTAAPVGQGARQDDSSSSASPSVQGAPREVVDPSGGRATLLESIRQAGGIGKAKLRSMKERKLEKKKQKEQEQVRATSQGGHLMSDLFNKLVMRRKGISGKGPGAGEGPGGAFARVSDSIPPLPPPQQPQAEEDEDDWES
UniProt Q7Z7G8: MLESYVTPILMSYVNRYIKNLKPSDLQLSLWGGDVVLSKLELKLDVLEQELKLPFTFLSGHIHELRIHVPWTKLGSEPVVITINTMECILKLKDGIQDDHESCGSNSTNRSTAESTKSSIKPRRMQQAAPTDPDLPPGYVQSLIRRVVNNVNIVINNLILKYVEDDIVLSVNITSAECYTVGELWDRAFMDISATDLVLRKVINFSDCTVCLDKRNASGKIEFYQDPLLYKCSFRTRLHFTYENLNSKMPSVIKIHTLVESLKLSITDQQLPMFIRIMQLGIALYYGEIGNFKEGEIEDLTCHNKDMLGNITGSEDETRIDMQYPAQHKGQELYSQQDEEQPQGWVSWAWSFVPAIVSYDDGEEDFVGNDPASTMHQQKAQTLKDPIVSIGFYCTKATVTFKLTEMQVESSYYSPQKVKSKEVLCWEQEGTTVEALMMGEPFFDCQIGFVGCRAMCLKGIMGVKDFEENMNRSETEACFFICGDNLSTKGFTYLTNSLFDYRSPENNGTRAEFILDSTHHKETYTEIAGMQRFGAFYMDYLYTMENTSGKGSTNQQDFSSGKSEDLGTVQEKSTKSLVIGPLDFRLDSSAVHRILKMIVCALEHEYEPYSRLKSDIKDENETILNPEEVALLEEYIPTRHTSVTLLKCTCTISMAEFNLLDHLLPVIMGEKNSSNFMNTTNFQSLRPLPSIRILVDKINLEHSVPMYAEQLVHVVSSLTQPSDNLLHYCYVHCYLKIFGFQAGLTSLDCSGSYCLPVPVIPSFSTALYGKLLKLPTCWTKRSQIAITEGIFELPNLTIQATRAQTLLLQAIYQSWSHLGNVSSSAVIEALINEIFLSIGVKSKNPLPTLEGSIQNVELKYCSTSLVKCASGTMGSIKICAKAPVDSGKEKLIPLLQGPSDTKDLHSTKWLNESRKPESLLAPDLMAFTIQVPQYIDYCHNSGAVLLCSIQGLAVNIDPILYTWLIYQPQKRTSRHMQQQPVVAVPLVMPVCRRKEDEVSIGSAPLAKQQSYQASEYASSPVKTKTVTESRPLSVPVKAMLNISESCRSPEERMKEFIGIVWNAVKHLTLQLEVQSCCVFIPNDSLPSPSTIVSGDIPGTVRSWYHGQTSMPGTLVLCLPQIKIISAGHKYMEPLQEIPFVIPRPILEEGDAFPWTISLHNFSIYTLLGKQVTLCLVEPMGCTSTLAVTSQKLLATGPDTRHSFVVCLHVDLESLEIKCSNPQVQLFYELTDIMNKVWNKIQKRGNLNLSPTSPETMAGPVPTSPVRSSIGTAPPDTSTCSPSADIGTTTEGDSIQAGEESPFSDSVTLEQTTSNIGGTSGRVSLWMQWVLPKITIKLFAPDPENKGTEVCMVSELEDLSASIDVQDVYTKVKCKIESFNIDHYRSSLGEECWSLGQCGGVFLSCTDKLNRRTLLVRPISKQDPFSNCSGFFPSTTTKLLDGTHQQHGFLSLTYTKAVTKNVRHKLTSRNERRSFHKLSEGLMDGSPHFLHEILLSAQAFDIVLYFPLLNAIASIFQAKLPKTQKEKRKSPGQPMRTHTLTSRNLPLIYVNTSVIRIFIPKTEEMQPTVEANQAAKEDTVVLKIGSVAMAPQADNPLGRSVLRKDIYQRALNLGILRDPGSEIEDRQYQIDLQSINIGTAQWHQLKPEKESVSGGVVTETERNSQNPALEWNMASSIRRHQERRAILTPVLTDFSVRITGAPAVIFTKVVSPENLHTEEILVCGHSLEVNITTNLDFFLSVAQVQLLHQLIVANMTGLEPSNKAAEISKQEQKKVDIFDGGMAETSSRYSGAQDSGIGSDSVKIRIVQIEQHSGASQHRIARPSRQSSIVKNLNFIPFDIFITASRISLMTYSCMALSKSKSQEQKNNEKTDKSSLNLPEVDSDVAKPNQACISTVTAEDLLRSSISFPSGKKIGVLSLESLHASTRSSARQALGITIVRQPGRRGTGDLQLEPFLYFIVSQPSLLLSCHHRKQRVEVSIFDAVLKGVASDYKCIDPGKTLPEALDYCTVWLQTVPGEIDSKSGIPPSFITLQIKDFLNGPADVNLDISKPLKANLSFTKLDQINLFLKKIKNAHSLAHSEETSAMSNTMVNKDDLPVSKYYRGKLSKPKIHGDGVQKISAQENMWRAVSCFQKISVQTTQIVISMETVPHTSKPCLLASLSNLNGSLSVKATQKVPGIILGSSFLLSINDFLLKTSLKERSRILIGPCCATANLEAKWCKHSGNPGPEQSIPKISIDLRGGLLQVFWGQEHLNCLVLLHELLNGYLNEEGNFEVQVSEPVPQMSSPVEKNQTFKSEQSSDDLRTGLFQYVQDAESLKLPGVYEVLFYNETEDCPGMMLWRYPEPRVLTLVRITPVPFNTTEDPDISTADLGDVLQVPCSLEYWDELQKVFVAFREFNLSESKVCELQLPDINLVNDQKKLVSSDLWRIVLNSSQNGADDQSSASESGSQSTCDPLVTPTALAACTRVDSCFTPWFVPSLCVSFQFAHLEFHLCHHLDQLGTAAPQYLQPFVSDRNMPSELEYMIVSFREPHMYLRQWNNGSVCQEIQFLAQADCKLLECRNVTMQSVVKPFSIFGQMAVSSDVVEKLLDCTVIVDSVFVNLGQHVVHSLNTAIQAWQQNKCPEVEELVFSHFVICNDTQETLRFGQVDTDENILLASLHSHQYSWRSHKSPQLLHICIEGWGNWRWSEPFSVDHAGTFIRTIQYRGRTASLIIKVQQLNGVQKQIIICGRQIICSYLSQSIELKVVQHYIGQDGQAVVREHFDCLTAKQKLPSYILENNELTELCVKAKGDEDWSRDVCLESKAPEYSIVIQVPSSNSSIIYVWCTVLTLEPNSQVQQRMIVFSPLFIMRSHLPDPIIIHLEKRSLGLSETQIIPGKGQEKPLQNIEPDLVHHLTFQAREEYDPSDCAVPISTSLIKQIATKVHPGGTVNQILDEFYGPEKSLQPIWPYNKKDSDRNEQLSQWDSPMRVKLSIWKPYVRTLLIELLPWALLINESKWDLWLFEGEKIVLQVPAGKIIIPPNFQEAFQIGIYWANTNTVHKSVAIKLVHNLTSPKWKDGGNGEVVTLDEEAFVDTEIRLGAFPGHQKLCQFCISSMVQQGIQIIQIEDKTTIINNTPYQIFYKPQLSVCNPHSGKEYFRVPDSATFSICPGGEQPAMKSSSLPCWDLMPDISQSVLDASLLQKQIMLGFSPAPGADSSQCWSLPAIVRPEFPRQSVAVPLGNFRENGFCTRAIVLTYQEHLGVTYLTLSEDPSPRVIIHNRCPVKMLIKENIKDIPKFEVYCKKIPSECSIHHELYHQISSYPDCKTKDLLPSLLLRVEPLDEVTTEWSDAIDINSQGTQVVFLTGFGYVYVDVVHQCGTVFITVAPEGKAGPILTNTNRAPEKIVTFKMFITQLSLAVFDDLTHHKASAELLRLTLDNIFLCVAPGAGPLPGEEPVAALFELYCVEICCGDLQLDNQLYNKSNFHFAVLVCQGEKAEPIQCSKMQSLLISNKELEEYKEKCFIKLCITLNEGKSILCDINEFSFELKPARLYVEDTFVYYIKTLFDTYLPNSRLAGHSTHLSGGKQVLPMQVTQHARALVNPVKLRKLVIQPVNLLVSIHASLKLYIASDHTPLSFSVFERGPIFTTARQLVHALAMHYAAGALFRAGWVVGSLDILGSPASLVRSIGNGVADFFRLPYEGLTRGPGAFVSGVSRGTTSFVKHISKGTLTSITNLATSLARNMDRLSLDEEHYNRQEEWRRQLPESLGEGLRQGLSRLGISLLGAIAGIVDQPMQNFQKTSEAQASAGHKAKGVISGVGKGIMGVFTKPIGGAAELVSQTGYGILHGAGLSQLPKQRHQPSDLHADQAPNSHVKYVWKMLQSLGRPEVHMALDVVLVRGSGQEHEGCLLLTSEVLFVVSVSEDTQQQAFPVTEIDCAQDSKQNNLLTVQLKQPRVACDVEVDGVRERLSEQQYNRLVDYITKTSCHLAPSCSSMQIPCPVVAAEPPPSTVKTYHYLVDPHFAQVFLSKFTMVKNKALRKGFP

What was measured:
Test in all cases: log2 fold change, soluble protein after heating vs DMSO (PISA); higher = thermal stabilisation; K562 lysate, 10 uM; active = over 0.2 and 3.5 SD of the protein, either way, in both replicates (recomputed)
[1] = compound: C=CC(=O)N1CCC[C@@H](n2nc(-c3ccc(Oc4ccccc4)cc3)c3c(N)ncnc32)C1 [ibrutinib]
Summary of the method: (§1)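 K562 pellets were dounce-homogenised in PBS pH 7.4 containing 1 mM MgCl2, and the crude extract, at 1 mg/mL protein, was exposed to 10 μM compound for 30 min. Aliquots were heated for 3 min across 48°C-58°C, pooled, brought to 0.5% NP-40 at 4°C and spun at 21,000xg for 90 min, with the supernatant taken as soluble protein. TMTpro 16plex LC-MS/MS with equalised channel sums quantified that protein. Values are log-two fold changes in thermal stability relative to solvent controls, taken from duplicates.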

[2] = compound: CC(=O)c1cnc2ccc(-c3cc(Cl)c(O)c(Cl)c3)nc2c1N[C@H]1CC[C@H](CN(C)C)CC1
Summary of the method: as §1

[3] = compound: CC(C)(C)Cn1c(N)nc2ccc(-c3[nH]c(C(C)(C)C)nc3-c3ccc(F)cc3)nc21 [ralimetinib]
Summary of the method: as §1

[4] = compound: CC(C)(O)CC(=O)NCCn1ccc2ncnc(Nc3ccc(Oc4cccc(C(F)(F)F)c4)c(Cl)c3)c21
Summary of the method: as §1

[5] = compound: CC(C)C1=C2N=C(C=C(N2N=C1)NCC3=CC=CC=C3)NCCCCCCN
Summary of the method: as §1

[6] = compound: CC1=C(C(CC(=O)N1)C2=CC=C(C=C2)C(F)(F)F)C(=O)NC3=C(C=C4C(=C3)C=NN4)F
Summary of the method: as §1

[7] = compound: CC1=C(C2=C(C=C1)C(=O)C3=CC=CC=C3N2CCCN)C
Summary of the method: as §1

[8] = compound: CC1=C(C=C(C=C1)NC(=O)C2=CC(=CC=C2)C(C)(C)C#N)NC3=CC4=C(C=C3)N=CN(C4=O)C
Summary of the method: as §1

[9] = compound: CC1=C(C=C(C=C1)NC(=O)C2=CC(=CC=C2)N(C)C)NC(=O)C3=CC=C(C=C3)O
Summary of the method: as §1

[10] = compound: CC1=CC=C(C=C1)SC2=C3C=C(SC3=CN=C2)C(=O)N
Summary of the method: as §1

[11] = compound: CCCS(=O)(=O)Nc1ccc(F)c(C(=O)c2c[nH]c3ncc(-c4ccc(Cl)cc4)cc23)c1F [vemurafenib]
Summary of the method: as §1

[12] = compound: CCCS(=O)(=O)Nc1ccc(F)c(C(=O)c2c[nH]c3ncc(Cl)cc23)c1F
Summary of the method: as §1

[13] = compound: CCN(CCCOc1ccc2c(Nc3cc(CC(=O)Nc4cccc(F)c4)[nH]n3)ncnc2c1)CCOP(=O)(O)O [barasertib]
Summary of the method: as §1

[14] = compound: CC[C@@H]1C(=O)N(C)c2cnc(Nc3ccc(C(=O)NC4CCN(C)CC4)cc3OC)nc2N1C1CCCC1
Summary of the method: as §1

[15] = compound: CC[C@@H]1C(=O)N(C)c2cnc(Nc3ccc(C(=O)N[C@H]4CC[C@H](N5CCN(CC6CC6)CC5)CC4)cc3OC)nc2N1C(C)C [volasertib]
Summary of the method: as §1

[16] = compound: CCn1c(C(=O)N(C2CC2)C2CC2)cc2c3c(ncn3C)c(Nc3cc(C)n(C)n3)nc21
Summary of the method: as §1

[17] = compound: CCn1cc(-c2ccnc3[nH]c(-c4cccc(CN(C)C)c4)cc23)c(-c2ccc(NC(=O)N(C)C)cc2)n1
Summary of the method: as §1

[18] = compound: CN1CCC(CNc2ccc3ncc(-c4cccc(OC(F)(F)F)c4)n3n2)CC1
Summary of the method: as §1

[19] = compound: CN1CCN(CCOc2cc(OC3CCOCC3)c3c(Nc4c(Cl)ccc5c4OCO5)ncnc3c2)CC1 [saracatinib]
Summary of the method: as §1

[20] = compound: CN1CCN(c2nc(C3=C(c4c[nH]c5ccccc45)C(=O)NC3=O)c3ccccc3n2)CC1 [sotrastaurin]
Summary of the method: as §1

Measured: log2 fold change

WASL (UniProt O00401)
inactive: [1] 0.023 | [2] 0.005 | [3] -0.04 | [4] -0.058 | [5] 0.061 | [6] 0.038 | [7] 0.007 | [8] 0.014 | [9] 0.02 | [10] 0.002 | [11] -0.067 | [12] -0.009 | [13] -0.007 | [14] -0.01 | [15] -0.069 | [16] -0.064 | [17] 0.182 | [18] -0.054 | [19] -0.015 | [20] 0.016

WDR26, A0A499FIZ0
inactive: [1] -0.024 | [2] -0.004 | [3] 0.019 | [4] -0.021 | [5] -0.03 | [6] -0.002 | [7] 0.003 | [8] 0 | [9] 0.013 | [10] 0.007 | [11] -0.033 | [12] 0.002 | [13] -0.003 | [14] 0.009 | [15] 0.006 | [16] 0.014 | [17] -0.029 | [18] 0.015 | [19] -0.026 | [20] 0.004

VPS39 (UniProt Q96JC1)
inactive: [1] 0 | [2] 0.021 | [3] -0.012 | [4] -0.056 | [5] -0.004 | [6] 0.014 | [7] 0 | [8] 0.016 | [9] -0.014 | [10] -0.005 | [11] -0.034 | [12] 0.014 | [13] 0.022 | [14] -0.029 | [15] -0.045 | [16] 0.001 | [18] -0.151 | [19] 0.018 | [20] -0.008
active: [17] 0.73

VPS37C (UniProt A5D8V6)
inactive: [1] -0.029 | [2] 0.002 | [3] -0.068 | [4] -0.063 | [5] 0.006 | [6] -0.014 | [7] -0.069 | [8] -0.077 | [9] 0.007 | [10] -0.01 | [11] -0.058 | [12] -0.006 | [13] 0.115 | [14] 0.081 | [15] -0.026 | [16] -0.027 | [17] 0.008 | [18] -0.057 | [19] 0.038 | [20] 0.036

WNK4 (UniProt Q96J92)
inactive: [1] 0.051 | [2] -0.014 | [3] 0.016 | [4] -0.134 | [5] -0.002 | [6] 0.028 | [7] -0.029 | [8] 0 | [9] -0.008 | [10] -0.022 | [11] -0.008 | [12] -0.027 | [13] 0.109 | [14] -0.034 | [15] -0.139 | [16] 0.021 | [17] 0.405 | [18] -0.26 | [19] 0.001 | [20] 0.09

WIPF3 (UniProt A6NGB9)
inactive: [1] 0.009 | [2] -0.021 | [3] 0.015 | [4] -0.032 | [5] -0.025 | [6] -0.004 | [7] 0.032 | [8] -0.023 | [9] -0.026 | [10] -0.02 | [11] -0.067 | [12] 0.006 | [13] -0.006 | [14] 0.126 | [15] 0.025 | [16] -0.029 | [17] 0.009 | [18] 0.016 | [19] 0.027 | [20] -0.005

WDR75 (UniProt Q8IWA0)
inactive: [1] -0.024 | [2] 0.004 | [3] -0.027 | [4] -0.004 | [5] -0.026 | [6] 0.062 | [7] -0.002 | [8] 0.006 | [9] -0.033 | [10] 0.043 | [11] -0.005 | [12] 0.02 | [13] 0.095 | [14] -0.157 | [15] -0.058 | [16] 0.021 | [17] 0.031 | [18] -0.061 | [19] 0.023 | [20] 0.004

VPS11 (UniProt Q9H270)
inactive: [1] -0.002 | [2] 0.025 | [3] 0.033 | [4] -0.025 | [5] 0.001 | [6] 0.003 | [7] 0.031 | [8] 0.026 | [9] -0.03 | [10] -0.002 | [11] -0.002 | [12] 0.034 | [13] 0.013 | [14] -0.033 | [15] -0.038 | [16] 0.015 | [17] -0.051 | [18] -0.007 | [19] 0.039 | [20] 0.019

WWP2 (UniProt O00308)
inactive: [1] -0.011 | [2] 0.095 | [3] -0.032 | [4] -0.083 | [5] 0.045 | [6] 0.065 | [7] -0.039 | [8] -0.038 | [9] 0.096 | [10] 0.076 | [11] 0.02 | [12] -0.016 | [13] 0.089 | [14] -0.047 | [15] -0.013 | [16] 0.122 | [17] 0.024 | [18] 0.019 | [19] 0.052 | [20] -0.06

VPS26A (UniProt O75436)
inactive: [1] -0.009 | [2] -0.016 | [3] 0.022 | [4] -0.016 | [5] -0.012 | [6] -0.003 | [7] -0.002 | [8] 0.023 | [9] -0.014 | [10] 0.001 | [11] 0.012 | [12] 0.004 | [13] 0.006 | [14] -0.014 | [15] 0.027 | [16] -0.026 | [17] -0.082 | [18] 0.06 | [19] 0.003 | [20] 0.017

Retrieved one by one from the entries so far, 2 records:
WIPF3 (UniProt A6NGB9)
inactive: [1] 0.009 | [2] -0.021 | [3] 0.015 | [4] -0.032 | [5] -0.025 | [6] -0.004 | [7] 0.032 | [8] -0.023 | [9] -0.026 | [10] -0.02 | [11] -0.067 | [12] 0.006 | [13] -0.006 | [14] 0.126 | [15] 0.025 | [16] -0.029 | [17] 0.009 | [18] 0.016 | [19] 0.027 | [20] -0.005

WDR75 (UniProt Q8IWA0)
inactive: [1] -0.024 | [2] 0.004 | [3] -0.027 | [4] -0.004 | [5] -0.026 | [6] 0.062 | [7] -0.002 | [8] 0.006 | [9] -0.033 | [10] 0.043 | [11] -0.005 | [12] 0.02 | [13] 0.095 | [14] -0.157 | [15] -0.058 | [16] 0.021 | [17] 0.031 | [18] -0.061 | [19] 0.023 | [20] 0.004

Further records

WIZ isoform 3 (UniProt O95785)
inactive: [1] 0.049 | [2] -0.016 | [3] -0.027 | [4] 0 | [5] 0.021 | [6] -0.025 | [7] 0.012 | [8] -0.036 | [9] 0.006 | [10] 0.015 | [11] 0.005 | [12] 0.021 | [13] 0.033 | [14] 0.037 | [15] 0.009 | [16] 0.013 | [17] -0.019 | [18] 0.06 | [19] -0.009 | [20] 0.013

WASH2P (UniProt Q6VEQ5)
inactive: [1] 0.038 | [2] 0.022 | [3] 0 | [4] 0.013 | [5] -0.002 | [6] 0.013 | [7] -0.001 | [8] 0.018 | [9] -0.008 | [10] -0.019 | [11] -0.016 | [12] 0.004 | [13] 0.011 | [14] -0.043 | [15] -0.015 | [16] 0.02 | [17] 0.02 | [18] -0.03 | [19] -0.013 | [20] -0.014

WTAP (UniProt Q15007)
inactive: [1] 0.004 | [2] 0.003 | [3] 0.042 | [4] -0.04 | [5] -0.011 | [6] -0.008 | [7] -0.023 | [8] -0.025 | [9] 0.058 | [10] 0.026 | [11] -0.034 | [12] 0.017 | [13] 0.042 | [14] -0.071 | [15] -0.054 | [16] -0.023 | [17] -0.041 | [18] 0.016 | [19] -0.013 | [20] 0.022

WDR92 (UniProt Q96MX6)
inactive: [1] 0.077 | [2] 0.046 | [3] 0.018 | [4] 0.058 | [5] -0.004 | [6] 0.014 | [7] 0.021 | [8] -0.01 | [9] -0.013 | [10] 0.021 | [11] -0.04 | [12] 0.011 | [13] 0.027 | [14] -0.079 | [15] -0.016 | [16] 0.04 | [17] 0.009 | [18] 0.046 | [19] -0.023 | [20] 0.009

VPS26C (UniProt O14972)
inactive: [1] 0.031 | [2] -0.025 | [3] 0.018 | [4] -0.055 | [5] -0.016 | [6] -0.058 | [7] 0.023 | [8] 0.033 | [9] 0.059 | [10] 0 | [11] 0.069 | [12] 0.002 | [13] 0.006 | [14] -0.047 | [15] -0.028 | [16] -0.045 | [17] -0.209 | [18] 0.082 | [19] -0.037 | [20] 0.039

VPS13B (UniProt Q7Z7G8)
inactive: [1] -0.052 | [2] 0.056 | [3] 0.083 | [4] 0.036 | [5] -0.183 | [6] -0.009 | [7] 0.041 | [8] 0.056 | [9] -0.02 | [10] -0.038 | [11] 0.05 | [12] 0.046 | [13] -0.036 | [14] 0.041 | [15] -0.062 | [16] 0.029 | [17] 0.049 | [18] 0.032 | [19] 0 | [20] 0.025
